# Source: the supplement of paper PMC10849652
# Chains of the proteins cited; added tags and fusions are not shown. Lines headed by an entry give the natural chain unless they say otherwise; changes in a name come on top.
# UniProt Q9BW92: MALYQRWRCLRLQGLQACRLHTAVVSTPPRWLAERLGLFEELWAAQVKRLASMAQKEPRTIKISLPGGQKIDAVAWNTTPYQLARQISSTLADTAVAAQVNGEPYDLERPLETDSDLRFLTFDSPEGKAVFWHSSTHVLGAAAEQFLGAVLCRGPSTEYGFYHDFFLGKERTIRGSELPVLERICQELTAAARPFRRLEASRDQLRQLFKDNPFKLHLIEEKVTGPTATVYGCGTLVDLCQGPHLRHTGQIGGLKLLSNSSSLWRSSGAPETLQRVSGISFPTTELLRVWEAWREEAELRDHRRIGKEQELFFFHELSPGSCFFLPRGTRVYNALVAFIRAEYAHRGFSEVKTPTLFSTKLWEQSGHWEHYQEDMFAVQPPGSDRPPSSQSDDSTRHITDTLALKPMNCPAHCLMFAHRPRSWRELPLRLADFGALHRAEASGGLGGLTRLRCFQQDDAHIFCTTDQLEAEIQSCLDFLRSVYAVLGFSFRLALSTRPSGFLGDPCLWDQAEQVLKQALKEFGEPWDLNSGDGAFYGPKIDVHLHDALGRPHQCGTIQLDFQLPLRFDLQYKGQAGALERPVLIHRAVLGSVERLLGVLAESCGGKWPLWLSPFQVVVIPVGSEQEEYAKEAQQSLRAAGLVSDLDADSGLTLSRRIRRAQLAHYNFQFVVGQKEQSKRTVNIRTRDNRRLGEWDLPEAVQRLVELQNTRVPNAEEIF
# UniProt Q13033: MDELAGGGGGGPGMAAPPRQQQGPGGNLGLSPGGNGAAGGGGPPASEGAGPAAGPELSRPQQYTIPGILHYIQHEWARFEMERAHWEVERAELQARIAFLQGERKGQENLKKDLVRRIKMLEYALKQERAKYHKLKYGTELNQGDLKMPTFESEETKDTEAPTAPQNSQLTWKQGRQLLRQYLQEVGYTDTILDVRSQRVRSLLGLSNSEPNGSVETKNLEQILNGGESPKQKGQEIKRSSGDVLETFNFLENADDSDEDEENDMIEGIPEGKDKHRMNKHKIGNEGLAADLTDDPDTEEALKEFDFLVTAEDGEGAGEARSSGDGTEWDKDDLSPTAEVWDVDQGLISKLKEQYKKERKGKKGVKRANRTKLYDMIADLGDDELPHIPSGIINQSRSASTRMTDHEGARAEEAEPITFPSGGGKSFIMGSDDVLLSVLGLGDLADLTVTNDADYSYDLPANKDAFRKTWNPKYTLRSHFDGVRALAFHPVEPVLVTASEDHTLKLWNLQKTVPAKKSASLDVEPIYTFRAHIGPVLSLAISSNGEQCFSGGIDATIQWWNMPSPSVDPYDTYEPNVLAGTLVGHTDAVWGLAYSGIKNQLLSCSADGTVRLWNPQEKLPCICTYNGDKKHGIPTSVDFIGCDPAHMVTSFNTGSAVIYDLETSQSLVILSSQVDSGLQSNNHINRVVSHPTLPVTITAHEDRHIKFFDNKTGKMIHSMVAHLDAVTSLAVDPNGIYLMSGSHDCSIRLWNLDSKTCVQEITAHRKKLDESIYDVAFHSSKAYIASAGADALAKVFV
# UniProt O60506: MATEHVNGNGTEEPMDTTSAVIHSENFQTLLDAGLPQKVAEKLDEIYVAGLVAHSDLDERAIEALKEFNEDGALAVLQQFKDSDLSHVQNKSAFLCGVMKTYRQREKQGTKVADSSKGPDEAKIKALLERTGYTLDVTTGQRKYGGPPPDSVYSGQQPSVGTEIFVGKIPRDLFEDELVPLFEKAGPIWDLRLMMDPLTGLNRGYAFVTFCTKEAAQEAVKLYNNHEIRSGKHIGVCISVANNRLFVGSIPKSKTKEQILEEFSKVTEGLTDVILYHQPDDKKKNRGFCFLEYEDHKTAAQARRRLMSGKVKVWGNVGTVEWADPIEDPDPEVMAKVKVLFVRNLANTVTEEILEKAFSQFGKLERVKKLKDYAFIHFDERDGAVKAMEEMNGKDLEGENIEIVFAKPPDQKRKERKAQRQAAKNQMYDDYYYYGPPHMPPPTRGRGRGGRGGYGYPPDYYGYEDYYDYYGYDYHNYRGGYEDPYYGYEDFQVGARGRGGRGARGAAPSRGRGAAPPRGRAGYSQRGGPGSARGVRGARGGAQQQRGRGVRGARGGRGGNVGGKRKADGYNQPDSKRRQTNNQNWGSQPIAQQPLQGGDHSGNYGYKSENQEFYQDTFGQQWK
# UniProt P61764, whole entry, looked up: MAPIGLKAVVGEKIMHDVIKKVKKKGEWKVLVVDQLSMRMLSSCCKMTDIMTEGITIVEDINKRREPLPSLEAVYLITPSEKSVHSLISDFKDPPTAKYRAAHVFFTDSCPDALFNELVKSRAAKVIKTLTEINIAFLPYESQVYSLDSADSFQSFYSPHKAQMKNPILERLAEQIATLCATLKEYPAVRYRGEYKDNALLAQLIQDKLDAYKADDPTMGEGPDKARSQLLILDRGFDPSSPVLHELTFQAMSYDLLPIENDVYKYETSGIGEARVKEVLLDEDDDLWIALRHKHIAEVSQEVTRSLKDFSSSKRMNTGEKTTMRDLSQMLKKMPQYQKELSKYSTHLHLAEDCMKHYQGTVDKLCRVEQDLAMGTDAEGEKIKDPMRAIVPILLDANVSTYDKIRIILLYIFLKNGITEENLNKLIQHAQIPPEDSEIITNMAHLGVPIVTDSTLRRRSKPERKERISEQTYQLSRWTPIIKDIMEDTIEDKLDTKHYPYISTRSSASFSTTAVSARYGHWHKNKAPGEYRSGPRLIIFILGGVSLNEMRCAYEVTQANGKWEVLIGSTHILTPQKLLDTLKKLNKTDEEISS
# UniProt P16949: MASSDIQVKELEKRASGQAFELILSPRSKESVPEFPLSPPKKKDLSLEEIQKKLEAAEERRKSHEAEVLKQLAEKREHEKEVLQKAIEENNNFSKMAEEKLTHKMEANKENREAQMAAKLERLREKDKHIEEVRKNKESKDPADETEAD
# UniProt Q8NBJ7: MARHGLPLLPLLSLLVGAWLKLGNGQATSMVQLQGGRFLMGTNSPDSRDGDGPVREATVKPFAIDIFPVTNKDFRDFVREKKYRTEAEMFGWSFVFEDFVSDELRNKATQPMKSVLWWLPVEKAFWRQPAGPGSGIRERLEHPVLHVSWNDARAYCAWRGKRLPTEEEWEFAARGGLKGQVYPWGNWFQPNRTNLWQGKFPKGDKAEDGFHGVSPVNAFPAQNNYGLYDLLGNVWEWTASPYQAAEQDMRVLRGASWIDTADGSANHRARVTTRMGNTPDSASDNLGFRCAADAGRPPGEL
# UniProt P08247, whole entry, looked up: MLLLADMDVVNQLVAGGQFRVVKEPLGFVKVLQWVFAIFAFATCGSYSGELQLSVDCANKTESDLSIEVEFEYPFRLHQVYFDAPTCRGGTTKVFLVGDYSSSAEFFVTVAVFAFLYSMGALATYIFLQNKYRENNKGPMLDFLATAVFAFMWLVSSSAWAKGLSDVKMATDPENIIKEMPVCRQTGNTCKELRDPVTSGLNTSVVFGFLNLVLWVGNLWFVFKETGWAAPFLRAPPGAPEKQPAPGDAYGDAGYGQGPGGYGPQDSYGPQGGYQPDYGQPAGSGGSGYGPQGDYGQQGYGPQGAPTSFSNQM
# UniProt P55854, whole entry, looked up: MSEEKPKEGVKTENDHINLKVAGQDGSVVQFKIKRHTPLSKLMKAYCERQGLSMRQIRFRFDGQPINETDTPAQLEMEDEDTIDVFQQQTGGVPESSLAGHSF
# UniProt Q6P1X5, whole entry, looked up: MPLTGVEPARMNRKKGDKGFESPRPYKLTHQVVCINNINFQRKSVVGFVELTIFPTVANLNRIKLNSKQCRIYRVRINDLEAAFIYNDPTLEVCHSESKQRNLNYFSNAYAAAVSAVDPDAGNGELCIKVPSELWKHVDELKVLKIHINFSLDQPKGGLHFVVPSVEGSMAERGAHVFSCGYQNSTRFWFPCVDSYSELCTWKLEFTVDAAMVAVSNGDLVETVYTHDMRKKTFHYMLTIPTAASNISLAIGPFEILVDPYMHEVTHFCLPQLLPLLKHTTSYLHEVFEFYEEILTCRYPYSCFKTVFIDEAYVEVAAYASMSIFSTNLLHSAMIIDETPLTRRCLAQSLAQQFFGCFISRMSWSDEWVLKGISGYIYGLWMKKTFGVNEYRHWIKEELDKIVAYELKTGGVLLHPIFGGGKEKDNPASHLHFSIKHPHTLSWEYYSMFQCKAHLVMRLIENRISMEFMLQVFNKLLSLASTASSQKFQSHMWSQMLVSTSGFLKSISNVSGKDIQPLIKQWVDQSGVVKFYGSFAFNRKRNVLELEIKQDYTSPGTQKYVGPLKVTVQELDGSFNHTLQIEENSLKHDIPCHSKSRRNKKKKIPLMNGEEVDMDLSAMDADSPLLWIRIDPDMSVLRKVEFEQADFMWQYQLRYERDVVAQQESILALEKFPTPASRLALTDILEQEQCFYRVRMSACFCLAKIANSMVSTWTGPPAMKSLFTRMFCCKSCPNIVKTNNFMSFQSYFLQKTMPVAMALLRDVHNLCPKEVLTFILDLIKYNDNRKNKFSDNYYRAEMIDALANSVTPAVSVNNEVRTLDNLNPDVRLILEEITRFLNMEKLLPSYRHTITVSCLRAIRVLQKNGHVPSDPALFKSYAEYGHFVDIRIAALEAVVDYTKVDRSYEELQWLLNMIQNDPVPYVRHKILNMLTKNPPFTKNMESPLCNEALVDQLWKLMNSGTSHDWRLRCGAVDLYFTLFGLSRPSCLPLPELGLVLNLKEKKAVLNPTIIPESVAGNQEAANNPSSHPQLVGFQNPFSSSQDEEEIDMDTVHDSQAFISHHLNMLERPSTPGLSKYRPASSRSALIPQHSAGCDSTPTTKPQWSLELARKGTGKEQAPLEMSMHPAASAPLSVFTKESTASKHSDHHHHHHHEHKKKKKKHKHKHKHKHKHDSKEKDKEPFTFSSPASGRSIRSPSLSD
# UniProt Q7L7X3: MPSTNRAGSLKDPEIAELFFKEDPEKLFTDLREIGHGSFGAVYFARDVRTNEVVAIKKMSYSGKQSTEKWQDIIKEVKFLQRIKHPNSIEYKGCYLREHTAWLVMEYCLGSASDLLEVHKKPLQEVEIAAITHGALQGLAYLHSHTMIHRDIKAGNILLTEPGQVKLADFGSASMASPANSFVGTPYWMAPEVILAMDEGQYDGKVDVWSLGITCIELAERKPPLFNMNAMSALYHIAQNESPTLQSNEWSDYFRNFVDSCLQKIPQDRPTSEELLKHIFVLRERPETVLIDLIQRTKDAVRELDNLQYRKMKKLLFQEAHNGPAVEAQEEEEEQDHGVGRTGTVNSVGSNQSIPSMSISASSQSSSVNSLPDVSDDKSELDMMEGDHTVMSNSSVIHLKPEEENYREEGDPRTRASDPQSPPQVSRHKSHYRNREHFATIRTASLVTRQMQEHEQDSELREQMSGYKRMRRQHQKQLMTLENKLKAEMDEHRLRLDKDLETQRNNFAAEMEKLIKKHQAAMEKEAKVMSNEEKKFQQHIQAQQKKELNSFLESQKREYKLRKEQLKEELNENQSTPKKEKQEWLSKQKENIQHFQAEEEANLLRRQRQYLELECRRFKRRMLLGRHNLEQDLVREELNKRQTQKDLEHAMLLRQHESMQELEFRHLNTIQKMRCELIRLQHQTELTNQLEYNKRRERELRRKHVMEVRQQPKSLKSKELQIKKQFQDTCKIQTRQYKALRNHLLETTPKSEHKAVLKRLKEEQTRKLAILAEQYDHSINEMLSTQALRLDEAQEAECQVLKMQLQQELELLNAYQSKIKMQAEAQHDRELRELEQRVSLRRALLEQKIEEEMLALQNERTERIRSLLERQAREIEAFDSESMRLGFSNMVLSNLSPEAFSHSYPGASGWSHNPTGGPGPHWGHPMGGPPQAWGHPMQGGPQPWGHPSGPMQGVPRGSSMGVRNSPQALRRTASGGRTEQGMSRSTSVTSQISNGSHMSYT
# UniProt O60347: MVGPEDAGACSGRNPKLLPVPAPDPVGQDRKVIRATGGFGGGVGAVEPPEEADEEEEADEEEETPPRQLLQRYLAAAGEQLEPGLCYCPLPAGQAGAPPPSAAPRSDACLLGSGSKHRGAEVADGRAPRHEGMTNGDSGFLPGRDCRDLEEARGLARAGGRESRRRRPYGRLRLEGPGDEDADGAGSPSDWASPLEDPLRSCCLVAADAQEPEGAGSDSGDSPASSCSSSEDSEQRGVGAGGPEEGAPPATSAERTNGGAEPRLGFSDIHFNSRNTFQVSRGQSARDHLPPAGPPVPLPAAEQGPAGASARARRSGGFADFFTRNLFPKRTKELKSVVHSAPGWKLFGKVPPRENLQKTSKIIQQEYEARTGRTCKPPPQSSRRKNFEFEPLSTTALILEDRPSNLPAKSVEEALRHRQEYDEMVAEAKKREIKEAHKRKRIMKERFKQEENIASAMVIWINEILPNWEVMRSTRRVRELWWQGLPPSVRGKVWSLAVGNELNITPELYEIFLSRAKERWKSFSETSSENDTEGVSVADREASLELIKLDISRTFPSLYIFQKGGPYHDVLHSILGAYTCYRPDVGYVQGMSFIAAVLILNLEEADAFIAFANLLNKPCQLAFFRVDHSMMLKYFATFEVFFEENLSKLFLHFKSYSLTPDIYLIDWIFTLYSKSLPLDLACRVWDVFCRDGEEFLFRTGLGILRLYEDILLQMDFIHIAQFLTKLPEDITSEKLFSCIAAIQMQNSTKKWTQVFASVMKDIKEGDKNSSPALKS
# Some of the results follow.
# Legend:
# Experiment in all cases: log2 fold change, soluble protein after heating vs DMSO (PISA); higher = thermal stabilisation; K562 cells, 10 uM, 30 min; active = over 0.2 and 3.5 SD of the protein, either way, in both replicates (recomputed)
# [1] = compound: CC[C@@H]1C(=O)N(C)c2cnc(Nc3ccc(C(=O)NC4CCN(C)CC4)cc3OC)nc2N1C1CCCC1
# Method in brief: (§1)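 K562 cells at 2×10^6 cells/mL were given 10 μM compound for 30 min. Aliquots then went through 3 min of heating across 48°C-58°C, were pooled, and were extracted in PBS with 0.5% NP-40 at 4°C, and the supernatant after 21,000xg for 90 min was quantified by TMTpro 16plex LC-MS/MS with channel sums equalised. Thermal stability relative to control samples, from duplicates, is given as log2 fold change.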
# [2] = compound: CC[C@@H]1C(=O)N(C)c2cnc(Nc3ccc(C(=O)N[C@H]4CC[C@H](N5CCN(CC6CC6)CC5)CC4)cc3OC)nc2N1C(C)C [volasertib]
# Method in brief: as §1
# [3] = compound: CC[C@H](C)N1C=C(C2=C(C=C(C=C21)C3=CN=C(C=C3)N4CCNCC4)C(=O)NCC5=C(C=C(NC5=O)C)C)C
# Method in brief: as §1
# [4] = compound: CC[C@H](C)[C@@H](C(=O)N[C@@H]([C@@H](C)O)C(=O)N[C@@H](CC(C)C)C(=O)[C@]1(CO1)C)NC(=O)[C@H]([C@@H](C)CC)N(C)C(=O)C [epoxomicin]
# Method in brief: as §1
# [5] = compound: CCn1c(C(=O)N(C2CC2)C2CC2)cc2c3c(ncn3C)c(Nc3cc(C)n(C)n3)nc21
# Method in brief: as §1
# [6] = compound: CCn1cc(-c2ccnc3[nH]c(-c4cccc(CN(C)C)c4)cc23)c(-c2ccc(NC(=O)N(C)C)cc2)n1
# Method in brief: as §1
# [7] = compound: CN(C)CC(=O)Nc1ccc2[nH]c(=O)c3ccccc3c2c1
# Method in brief: as §1
# [8] = compound: CN(CCOC1=CC=C(C=C1)C[C@H]2C(=O)NC(=O)S2)C3=CC=CC=N3 (racemic) [rosiglitazone]
# Method in brief: as §1
# [9] = compound: CN1C2=C(C3=C1C(=O)N(N=C3)CC4=CC(=CC=C4)N)SC(=C2)S(=O)C
# Method in brief: as §1
# [10] = compound: CN1CCC(CNc2ccc3ncc(-c4cccc(OC(F)(F)F)c4)n3n2)CC1
# Method in brief: as §1
# [11] = compound: CN1CCN(CCOc2cc(OC3CCOCC3)c3c(Nc4c(Cl)ccc5c4OCO5)ncnc3c2)CC1 [saracatinib]
# Method in brief: as §1
# [12] = compound: CN1CCN(c2nc(C3=C(c4c[nH]c5ccccc45)C(=O)NC3=O)c3ccccc3n2)CC1 [sotrastaurin]
# Method in brief: as §1
# [13] = compound: CN1CC[C@H](c2c(O)cc(O)c3c(=O)cc(-c4ccccc4Cl)oc23)[C@H](O)C1 [alvocidib]
# Method in brief: as §1
# [14] = compound: CN1CCc2c(c3ccccc3n2Cc2ccc(C(=O)NO)cc2)C1 [Tubastatin A]
# Method in brief: as §1
# [15] = compound: CNC(=O)C1=CC=CC=C1NC2=NC(=NC=C2Cl)NC3=C(C=C(C=C3)N4CCOCC4)OC
# Method in brief: as §1
# [16] = compound: CNC(=O)c1ccc(Nc2ncc(C(F)(F)F)c(NCc3nccnc3N(C)S(C)(=O)=O)n2)cc1 [defactinib]
# Method in brief: as §1
# [17] = compound: CNCc1ccc(-c2[nH]c3cc(F)cc4c3c2CCNC4=O)cc1 [rucaparib]
# Method in brief: as §1
# [18] = compound: CNc1nc(-c2ccc3c(N)n[nH]c3c2)cc(N2C[C@@H](C(=O)NC3CCCCC3)CC[C@H]2C)n1
# Method in brief: as §1
# [19] = compound: COC(=O)N[C@@H](C)CNc1nccc(-c2cn(C(C)C)nc2-c2cc(Cl)cc(NS(C)(=O)=O)c2F)n1 [encorafenib]
# Method in brief: as §1
# [20] = compound: COC(=O)[C@H](CCSC)NC(=O)C1=C(C=C(C=C1)NC[C@H](CS)N)C2=CC=CC=C2
# Method in brief: as §1
Target,log2 fold change [1],log2 fold change [2],log2 fold change [3],log2 fold change [4],log2 fold change [5],log2 fold change [6],log2 fold change [7],log2 fold change [8],log2 fold change [9],log2 fold change [10],log2 fold change [11],log2 fold change [12],log2 fold change [13],log2 fold change [14],log2 fold change [15],log2 fold change [16],log2 fold change [17],log2 fold change [18],log2 fold change [19],log2 fold change [20]
TBC1D13 (UniProt Q9NVG8),inactive: 0.016,inactive: -0.02,inactive: 0.006,inactive: 0.014,inactive: 0.018,inactive: -0.029,inactive: 0.003,inactive: 0.008,inactive: -0.075,inactive: -0.08,inactive: 0.013,inactive: 0.065,inactive: -0.061,inactive: -0.058,inactive: -0.029,inactive: -0.035,inactive: -0.021,inactive: -0.045,inactive: -0.008,inactive: -0.004
TARS2 (UniProt Q9BW92),inactive: -0.017,inactive: -0.128,inactive: 0.012,inactive: 0.02,–,inactive: -0.002,inactive: -0.019,–,inactive: -0.055,inactive: -0.069,inactive: -0.004,inactive: -0.049,–,active: -0.357,inactive: 0.03,inactive: -0.033,inactive: 0.009,inactive: -0.098,inactive: 0.015,inactive: 0.039
STRN3 (UniProt Q13033),inactive: -0.007,inactive: -0.073,inactive: 0.038,inactive: 0.043,inactive: 0.021,inactive: -0.033,inactive: 0.005,inactive: 0.033,inactive: -0.001,inactive: 0.026,inactive: -0.011,inactive: -0.014,inactive: -0.024,inactive: -0.01,inactive: 0.014,inactive: -0.04,inactive: 0.007,inactive: -0.003,inactive: -0.002,inactive: 0
STK4 (UniProt Q13043),inactive: 0.024,inactive: 0.006,inactive: 0.014,inactive: 0.033,–,inactive: -0.041,inactive: 0.013,–,inactive: 0.004,inactive: -0.061,inactive: 0.006,inactive: 0.029,–,inactive: 0.039,inactive: 0.01,inactive: -0.002,inactive: -0.008,inactive: 0.012,inactive: 0.077,inactive: -0.003
SYNCRIP (UniProt O60506),inactive: 0.115,inactive: 0.133,inactive: 0.026,inactive: -0.123,inactive: 0.039,inactive: 0.111,inactive: -0.064,inactive: -0.065,inactive: 0.124,inactive: 0.11,inactive: -0.042,inactive: 0.002,inactive: 0.12,inactive: 0.027,inactive: 0.022,inactive: 0.158,inactive: 0.124,inactive: -0.004,inactive: 0.066,inactive: 0.009
STXBP1 (UniProt P61764),inactive: -0.03,inactive: -0.432,inactive: 0.142,inactive: 0.057,inactive: -0.102,inactive: -0.114,inactive: 0.213,inactive: 0.045,inactive: -0.104,inactive: -0.315,inactive: -0.069,inactive: -0.192,inactive: -0.116,inactive: 0.388,inactive: -0.039,inactive: -0.241,inactive: 0.075,inactive: 0.122,inactive: -0.003,inactive: -0.101
SUPT6H (UniProt Q7KZ85),inactive: -0.046,inactive: -0.259,inactive: 0.081,inactive: 0.094,inactive: -0.094,inactive: -0.082,inactive: 0.104,inactive: 0.1,inactive: 0.011,inactive: -0.233,inactive: -0.032,inactive: -0.047,inactive: 0.445,inactive: 0.032,inactive: -0.053,inactive: -0.039,inactive: 0.06,inactive: 0.079,inactive: -0.008,inactive: -0.233
STMN1 (UniProt P16949),inactive: -0.022,inactive: 0.227,inactive: -0.039,inactive: -0.007,inactive: 0.033,inactive: 0.044,inactive: -0.015,inactive: 0.021,inactive: -0.058,inactive: 0.046,inactive: 0.011,inactive: 0.06,inactive: 0.002,inactive: -0.005,inactive: -0.046,inactive: -0.004,inactive: -0.085,inactive: -0.016,inactive: 0.011,inactive: 0.037
SUMF2 (UniProt Q8NBJ7),inactive: -0.012,inactive: -0.036,inactive: 0.029,inactive: -0.009,inactive: 0.035,inactive: 0.02,inactive: -0.04,inactive: 0.008,inactive: 0.026,inactive: 0.016,inactive: -0.033,inactive: -0.042,inactive: -0.058,inactive: -0.012,inactive: 0.025,inactive: -0.033,inactive: 0.059,inactive: -0.068,inactive: 0.037,inactive: 0.023
SYP (UniProt P08247),inactive: -0.018,inactive: 0.108,inactive: -0.109,inactive: -0.167,inactive: 0.021,inactive: -0.025,inactive: 0.001,inactive: 0.033,inactive: -0.003,inactive: 0.116,inactive: 0.12,–,inactive: -0.04,inactive: 0.076,inactive: 0.031,inactive: -0.005,inactive: -0.157,inactive: -0.018,inactive: 0.047,inactive: 0.046
"SYNJ2BP-COX16, A0A087WYV9",inactive: -0.001,inactive: 0.032,inactive: 0.01,inactive: -0.061,inactive: 0.014,inactive: 0.085,inactive: -0.015,inactive: -0.014,inactive: 0.054,inactive: -0.002,inactive: -0.021,inactive: 0.047,inactive: 0.001,inactive: -0.031,inactive: 0.02,inactive: -0.052,inactive: 0.021,inactive: -0.02,inactive: -0.046,inactive: 0.048
SUMO3 isoform 2 (UniProt P55854),inactive: 0.04,inactive: 0.222,inactive: -0.074,inactive: -0.068,inactive: 0.066,inactive: 0.08,inactive: -0.082,inactive: -0.043,inactive: 0.063,inactive: -0.08,inactive: 0.039,inactive: 0.107,inactive: 0.094,inactive: -0.05,inactive: -0.096,inactive: 0.008,inactive: 0.015,inactive: -0.111,inactive: -0.024,inactive: 0.084
TAF2 (UniProt Q6P1X5),inactive: -0.016,inactive: -0.012,inactive: 0.055,inactive: -0.14,–,inactive: 0.132,inactive: -0.013,inactive: -0.013,inactive: 0.095,inactive: -0.193,inactive: -0.189,inactive: 0.002,inactive: 0.113,inactive: -0.179,–,inactive: 0.102,inactive: 0.105,inactive: 0.061,inactive: -0.009,inactive: 0.064
STK39 (UniProt Q9UEW8),inactive: -0.062,inactive: -0.139,inactive: 0.023,inactive: 0.054,–,inactive: -0.036,inactive: -0.011,–,inactive: 0.005,active: -0.25,inactive: -0.014,inactive: -0.017,–,inactive: 0.009,inactive: -0.045,inactive: -0.015,inactive: 0.014,inactive: -0.008,inactive: 0.039,inactive: 0.056
TAOK1 (UniProt Q7L7X3),inactive: 0.03,inactive: -0.019,inactive: 0.029,inactive: -0.02,–,inactive: -0.024,inactive: 0,–,inactive: 0.017,active: -0.262,inactive: 0.002,inactive: -0.013,–,inactive: 0.032,inactive: -0.002,inactive: -0.142,inactive: 0.032,inactive: 0.053,inactive: -0.061,inactive: -0.018
SYMPK (UniProt Q92797),inactive: -0.341,active: -0.5,inactive: -0.289,inactive: 0.073,–,inactive: -0.026,inactive: 0.123,–,inactive: 0.076,inactive: -0.141,inactive: -0.058,inactive: -0.205,–,inactive: 0.258,inactive: 0.008,inactive: -0.245,inactive: 0.09,inactive: 0.007,inactive: 0.079,inactive: -0.022
TBC1D12 (UniProt O60347),inactive: -0.148,inactive: -0.274,–,inactive: 0.032,inactive: -0.043,–,inactive: 0.066,–,–,–,–,–,inactive: -0.059,inactive: 0.151,inactive: -0.081,inactive: -0.018,inactive: 0.052,–,inactive: 0.134,inactive: -0.265

# A second format for part of the listing above.
Target | log2 fold change [1] | log2 fold change [2] | log2 fold change [3] | log2 fold change [4] | log2 fold change [5] | log2 fold change [6] | log2 fold change [7] | log2 fold change [8] | log2 fold change [9] | log2 fold change [10] | log2 fold change [11] | log2 fold change [12] | log2 fold change [13] | log2 fold change [14] | log2 fold change [15] | log2 fold change [16] | log2 fold change [17] | log2 fold change [18] | log2 fold change [19] | log2 fold change [20]
SYNCRIP (UniProt O60506) | inactive: 0.115 | inactive: 0.133 | inactive: 0.026 | inactive: -0.123 | inactive: 0.039 | inactive: 0.111 | inactive: -0.064 | inactive: -0.065 | inactive: 0.124 | inactive: 0.11 | inactive: -0.042 | inactive: 0.002 | inactive: 0.12 | inactive: 0.027 | inactive: 0.022 | inactive: 0.158 | inactive: 0.124 | inactive: -0.004 | inactive: 0.066 | inactive: 0.009
STXBP1 (UniProt P61764) | inactive: -0.03 | inactive: -0.432 | inactive: 0.142 | inactive: 0.057 | inactive: -0.102 | inactive: -0.114 | inactive: 0.213 | inactive: 0.045 | inactive: -0.104 | inactive: -0.315 | inactive: -0.069 | inactive: -0.192 | inactive: -0.116 | inactive: 0.388 | inactive: -0.039 | inactive: -0.241 | inactive: 0.075 | inactive: 0.122 | inactive: -0.003 | inactive: -0.101
SUPT6H (UniProt Q7KZ85) | inactive: -0.046 | inactive: -0.259 | inactive: 0.081 | inactive: 0.094 | inactive: -0.094 | inactive: -0.082 | inactive: 0.104 | inactive: 0.1 | inactive: 0.011 | inactive: -0.233 | inactive: -0.032 | inactive: -0.047 | inactive: 0.445 | inactive: 0.032 | inactive: -0.053 | inactive: -0.039 | inactive: 0.06 | inactive: 0.079 | inactive: -0.008 | inactive: -0.233
STMN1 (UniProt P16949) | inactive: -0.022 | inactive: 0.227 | inactive: -0.039 | inactive: -0.007 | inactive: 0.033 | inactive: 0.044 | inactive: -0.015 | inactive: 0.021 | inactive: -0.058 | inactive: 0.046 | inactive: 0.011 | inactive: 0.06 | inactive: 0.002 | inactive: -0.005 | inactive: -0.046 | inactive: -0.004 | inactive: -0.085 | inactive: -0.016 | inactive: 0.011 | inactive: 0.037
